According to PubChem BioAssay AID602313 (National Center for Advancing Translational Sciences (NCATS), 2012):
The whole screen tested about 390,000 compounds, of which about 760 (0.19%) were called active. The shares of active, inactive and inconclusive entries below differ from those in the screen. Calls come from the whole dose curve; as a rule, active = well fitted inhibition curve with a large enough effect; inconclusive = small, poorly fitted or top-dose-only effect; inactive = flat fitted curve, though single readings scatter. Where the call is inconclusive, the potency comes from a doubtful curve fit.
Potency is the fitted concentration of half-maximal effect.

Assay: qHTS for Inhibitors of Vif-A3F Interactions: qHTS; note: nearly all actives have a fitted effect of over 65% in size
Conditions: HeLa A3F-eYFP + Vif (tagged APOBEC3F with the HIV-1 protein that degrades it), YFP fluorescence increase; series mostly up to 46.1 µM
How it was run: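 HeLa cells stably expressing A3F-eYFP plus Vif, plated and incubated overnight at 37 deg C, then exposed to compounds overnight at 37 deg C. Blocked degradation read as raised yellow fluorescence (Ex 488/Em 500-530).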
For `Cc1ccc(O)c(NC(=O)c2cc(-c3ccccc3Cl)on2)c1`, the Potency was inconclusive: 35.5 µM [inhibitor, single point].
For `Cc1cc2nc(SCCOC(=O)Nc3ccccc3)nc(C)c2cc1C`, the Potency was “inactive”.
For `Cc1cccc2cc3c(N)c(C(=O)N4CCOCC4)sc3nc12`, the Potency was active: 22.4 µM.
For `Cc1cc(C(=O)Nc2ccc3nc(C)sc3c2)c2ccccc2n1`, the Potency was inconclusive: 22.4 µM [inhibitor, single point].
With `COCCN(C(=O)c1ccccc1F)c1c(N)n(Cc2ccccc2)c(=O)[nH]c1=O` the Potency was inconclusive: 6.31 µM [inhibitor, single point].
With `COc1ccc(-c2ccc(C#N)c(SCC(=O)NCCc3ccccc3)n2)cc1OC` the Potency was “inactive”.
With `CN(C)c1cccc(C(=O)Nc2nc3ccccc3[nH]2)c1` the Potency was inconclusive: 22.4 µM [inhibitor, single point].
With `COc1cc2[nH]c(=S)nc(NCc3cccc(Cl)c3)c2cc1OC` the Potency was inconclusive: 35.5 µM [inhibitor, single point].
For `O=c1oc2c(CN3CCCC3)c(O)ccc2cc1-c1ccccc1`, the Potency was “inactive”.
In the case of `CCOc1cccc(/C=N/NC(=S)NCCN2CCOCC2)c1O`, the Potency is reported as inconclusive: 20 µM [inhibitor, single point].
For `O=[N+]([O-])c1cccc(NC2=NCCC2)c1`, the Potency was inconclusive: 6.31 µM [inhibitor, single point].
For `COc1ccccc1-n1nnnc1SCC(=O)NC1CC1`, the Potency was inconclusive: 15.8 µM [inhibitor, single point].
In the case of `O=C(NCCc1ccc(F)cc1)c1coc(=O)c(Br)c1`, the Potency is reported as inconclusive: 35.5 µM [inhibitor, single point].
For `Cc1ccc(C)c(CN2CCC(n3nccc3NC(=O)C3CCCC3)CC2)c1`, the Potency was inconclusive: 5.62 µM [inhibitor, single point].
In the case of `O=C(CN1CCC(C(=O)c2ccc(F)cc2)CC1)Nc1ccccc1`, the Potency is reported as “inactive”.
In the case of `COc1ccc(S(=O)(=O)N2CCC(C(=O)NCc3ccco3)CC2)cc1C`, the Potency is reported as inconclusive: 15.8 µM [inhibitor, single point].
With `Cc1cc(-c2nsc(=O)o2)c(S(C)(=O)=O)s1` the Potency was “inactive”.
In the case of `COc1ccc2[nH]c(C)c(CCNC(=S)Nc3ccccc3C)c2c1`, the Potency is reported as inconclusive: 6.31 µM [inhibitor, single point].
In the case of `CCOc1ccccc1NC(=O)Cn1c(=O)n(-c2ccc(F)cc2)c(=O)c2c3c(sc21)CN(C(C)=O)CC3`, the Potency is reported as “inactive”.
For `O=C(Nc1cccc2ncccc12)c1ccc(-c2ccc(Br)cc2)o1`, the Potency was “inactive”.
In the case of `Cc1cc(C)c(C)c(OCC(=O)N2CCCCCC2)c1`, the Potency is reported as “inactive”.
In the case of `Nc1c(S(=O)(=O)c2ccccc2)c2nc3ccccc3nc2n1CCN1CCOCC1`, the Potency is reported as inconclusive: 6.31 µM [inhibitor, partial curve, poor fit].
With `O=C(Cc1ccc(Br)cc1)Nc1nc2ccccc2[nH]1` the Potency was inconclusive: 3.16 µM [inhibitor, single point].
With `C=CCN1C(=O)/C(=C/c2ccc(OC(C)=O)c(OCC)c2[N+](=O)[O-])SC1=S` the Potency was inconclusive: 0.562 µM [inhibitor, full curve, poor fit].
In the case of `O=C(NCC(c1ccco1)N1CCc2ccccc2C1)c1ccc(F)cc1` (configuration not stated), the Potency is reported as inconclusive: 5.62 µM [inhibitor, single point].
With `Cc1cc(C)cc(C(=O)NC(CC(N)=O)c2ccc(NC3CCCCC3)c([N+](=O)[O-])c2)c1` (configuration not stated) the Potency was inconclusive: 31.6 µM [inhibitor, single point].
In the case of `COC(=O)c1ccc(CSc2nnc(NC(C)C)s2)o1`, the Potency is reported as inconclusive: 2.82 µM [inhibitor, single point].
In the case of `Cc1cc(C)cc(NC(=O)Nc2ccccc2OCc2cc(=O)n3ccccc3n2)c1`, the Potency is reported as inconclusive: 6.31 µM [inhibitor, single point].
With `Cc1cc(/C=C2/NC(=S)NC2=O)c(C)n1-c1cccnc1` the Potency was inconclusive: 11.2 µM [inhibitor, single point].
With `COc1ccc(CNC(=O)CCc2c(C)nc3nc(CNC(=O)OC(C)(C)C)nn3c2C)cc1` the Potency was “inactive”.
For `COc1ccc(NC2CCCN(C(=O)CSc3ccccn3)C2)cc1OC` (configuration not stated), the Potency was “inactive”.
For `CN(C)c1ccc(/C=C/c2cc[n+](C)cc2)cc1`, the Potency was inconclusive: 22.4 µM [inhibitor, partial curve, poor fit].
For `CN1CCN(C(c2cccnc2)c2ccc3cccnc3c2O)CC1` (configuration not stated), the Potency was “inactive”.
With `O=C1c2ccccc2-c2onc3ccc(NCc4ccco4)c1c23` the Potency was inconclusive: 25.1 µM [inhibitor, single point].
With `CC(C)(C)NC(=S)NNC(=O)c1ccncc1` the Potency was inconclusive: 35.5 µM [inhibitor, single point].
In the case of `COc1nc(-c2ccc(Cl)cc2)ccc1-c1noc(-c2cccs2)n1`, the Potency is reported as inconclusive: 35.5 µM [inhibitor, single point].
For `CCC1CCc2nc3sc(C(=O)Nc4cccc(C(F)(F)F)c4)c(N)c3cc2C1` (configuration not stated), the Potency was inconclusive: 35.5 µM [inhibitor, single point].
In the case of `O=C(NCC1(c2ccccc2)CCCC1)c1ccc(Br)cc1`, the Potency is reported as “inactive”.
In the case of `COc1ccc(S(=O)(=O)Nc2cc3c(cc2N2CCOCC2)n(C)c(=O)n3C)cc1`, the Potency is reported as inconclusive: 22.4 µM [inhibitor, single point].
With `NC(=O)c1c(NC(=O)c2cccs2)sc2c1CCCCCC2` the Potency was “inactive”.
In the case of `Clc1cccc(OCCN2CCNCC2)c1`, the Potency is reported as inconclusive: 5.62 µM [inhibitor, single point].
With `O=C(CNC(=O)c1ccc(F)cc1)NCc1ccc(S(=O)(=O)N2CCOCC2)cc1` the Potency was inconclusive: 35.5 µM [inhibitor, single point].
For `COCCNC(=O)c1ccc2c(=O)n(CCOC)c(SCC(=O)c3c[nH]c4ccccc34)nc2c1`, the Potency was inconclusive: 35.5 µM [inhibitor, single point].
In the case of `Cc1cccc(N2CC(C)Cn3c2nc2c3c(=O)[nH]c(=O)n2C)c1` (configuration not stated), the Potency is reported as inconclusive: 15.8 µM [inhibitor, single point].
For `COc1ccc2nc3ccccc3nc2c1NC(=O)c1ccc(Br)cc1`, the Potency was active: 6.31 µM.
In the case of `CC/C(=N/NC(=O)c1ccc2c(c1)OCO2)c1ccccc1O`, the Potency is reported as inconclusive: 3.16 µM [inhibitor, single point].
In the case of `Cc1cc(OCc2ccc(C(=O)NN=C3CCCC3)cc2)ccc1Cl`, the Potency is reported as inconclusive: 20 µM [inhibitor, single point].
With `COc1ccc(NC(=O)CC(C)CC(=O)NCc2ccc(F)cc2)c(OC)c1` (configuration not stated) the Potency was inconclusive: 5.01 µM [inhibitor, single point].
With `CCOc1cc(CN2CCN(C(=O)c3cccc4ccccc34)CC2)ccc1OC` the Potency was inconclusive: 35.5 µM [inhibitor, single point].
For `CCCN1C(=O)/C(=C/c2c(NCCCOCC)nc3c(C)cccn3c2=O)SC1=S`, the Potency was inconclusive: 2 µM [inhibitor, full curve, poor fit].
In the case of `CCc1noc(C)c1C(=O)Nc1cc(S(=O)(=O)N2CCOCC2)ccc1OCC(F)(F)F`, the Potency is reported as inconclusive: 6.31 µM [inhibitor, partial curve, poor fit].
With `CC(Nc1nc(-c2ccc(F)cc2)cs1)c1nc2cc(Cl)c(N3CCCCC3)cc2n1CCCO` (configuration not stated) the Potency was inconclusive: 28.2 µM [inhibitor, single point].
With `Cc1cccc(Cc2nc3ccccc3[nH]2)c1` the Potency was inconclusive: 35.5 µM [inhibitor, single point].
For `Cc1ccccc1C1CC(c2cccs2)=NN1S(C)(=O)=O` (configuration not stated), the Potency was active: 17.8 µM.
In the case of `CCn1cc(C(=O)O)c(=O)c2cnc(N3CCN(C(=S)Nc4ccccc4)CC3)nc21`, the Potency is reported as “inactive”.
With `Cc1c(N2C(=O)C3C4C=CC(C4)C3C2=O)c(=O)n(-c2ccccc2)n1C` (configuration not stated) the Potency was inconclusive: 2.82 µM [inhibitor, full curve].
With `Cc1cc2c(cc1C)CSC(c1ccccc1O)SC2` the Potency was “inactive”.
For `CC(C)(C)C1CCC(C(=O)NCCc2ccc(S(N)(=O)=O)cc2)CC1` (configuration not stated), the Potency was inconclusive: 2.82 µM [inhibitor, single point].
For `CCn1cc(CNC(=O)c2cc(COc3ccc(F)cc3Cl)on2)cn1`, the Potency was “inactive”.
In the case of `Cc1ccsc1C(=O)Nc1nccs1`, the Potency is reported as inconclusive: 17.8 µM [inhibitor, single point].
In the case of `COc1cc(/C=C(\C#N)c2nc(-c3cc4ccccc4oc3=O)cs2)ccc1O`, the Potency is reported as inconclusive: 4.47 µM [inhibitor, full curve, poor fit].
In the case of `COc1cccc(NC(=O)c2ccccc2Oc2ccccc2)c1`, the Potency is reported as “inactive”.
With `CCOC(=O)Cc1ccc(NC(=O)N2CCc3c(sc4c3CCCC4)C2c2ccc(F)cc2)cc1` (configuration not stated) the Potency was “inactive”.
In the case of `Cc1ccc(-c2nc3cc(NS(=O)(=O)c4ccc(C)cc4)ccc3o2)cc1`, the Potency is reported as inconclusive: 20 µM [inhibitor, partial curve, poor fit].
In the case of `Cc1ccc(NC(=O)Nc2ccc3c(c2)N(C)C(=O)CS3)nc1`, the Potency is reported as “inactive”.
In the case of `O=C(Cc1cccs1)NCc1cccnc1`, the Potency is reported as “inactive”.
In the case of `Cc1ccc(-c2nnc(Nc3ccc4c(c3)OCO4)c3ccccc23)cc1S(=O)(=O)NC(C)C`, the Potency is reported as “inactive”.
In the case of `CCn1c(C)cs/c1=N\S(=O)(=O)c1ccccc1`, the Potency is reported as “inactive”.
With `Cc1c(C(=O)Nc2ccccc2Cl)sc2ncnc(N(C)C3CCCCC3)c12` the Potency was inconclusive: 35.5 µM [inhibitor, single point].
With `Cc1cc(OCC(=O)Nc2sc3c(c2C#N)CC(C)(C)NC3(C)C)c(C(C)C)cc1Cl` the Potency was “inactive”.
In the case of `O=C(NCc1ccccc1)C(=O)NCC1OCCN1S(=O)(=O)c1ccc([N+](=O)[O-])cc1` (configuration not stated), the Potency is reported as “inactive”.
In the case of `CCOC(=O)c1c(C)oc2c1c(C=NCc1ccccn1)c(O)c1ccccc12`, the Potency is reported as inconclusive: 3.16 µM [inhibitor, single point].
